Results from article PMC10253099.
Results are given in words; binding and its absence hold for the method and conditions named. For some of these results: In cells and extracts the contact can be indirect. Some results given as binding are weak or reduced against the parent protein; the word gives no strength. Sequences can lack the tags named with a protein. Values belong to the binder of their own block, whether it stands above or below them.

Legend:
[1] = target: T1, MORF2-cYFP (MORF2 fused to the C-terminal fragment of YFP) (Arabidopsis thaliana) (UniProt O22793); assay: split reporter; BiFC: nYFP (pSPYNE173) and cYFP (pSPYCE(M)) fusions co-transformed into Arabidopsis Col-0 mesophyll protoplasts, 16-20 h at 22 °C, confocal microscopy
T1 sequence: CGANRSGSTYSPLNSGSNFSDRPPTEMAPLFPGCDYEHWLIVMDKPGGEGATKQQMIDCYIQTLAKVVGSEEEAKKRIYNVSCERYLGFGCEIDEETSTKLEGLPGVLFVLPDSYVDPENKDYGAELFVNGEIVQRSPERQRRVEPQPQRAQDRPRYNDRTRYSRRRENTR

[2] = target: T2, MORF8-cYFP (Arabidopsis thaliana) (UniProt Q9LKA5); assay: as above
T2 sequence: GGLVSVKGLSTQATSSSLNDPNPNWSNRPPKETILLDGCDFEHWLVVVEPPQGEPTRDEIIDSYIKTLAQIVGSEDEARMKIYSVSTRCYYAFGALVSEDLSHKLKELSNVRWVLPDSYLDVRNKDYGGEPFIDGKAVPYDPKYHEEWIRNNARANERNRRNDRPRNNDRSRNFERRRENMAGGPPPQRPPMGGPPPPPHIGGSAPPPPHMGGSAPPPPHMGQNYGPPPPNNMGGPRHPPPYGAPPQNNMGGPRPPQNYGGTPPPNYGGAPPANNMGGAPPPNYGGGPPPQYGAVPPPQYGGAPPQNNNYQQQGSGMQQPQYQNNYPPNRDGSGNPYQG

[3] = target: T3, MORF9-cYFP (Arabidopsis thaliana) (UniProt Q9LPZ1); assay: as above
T3 sequence: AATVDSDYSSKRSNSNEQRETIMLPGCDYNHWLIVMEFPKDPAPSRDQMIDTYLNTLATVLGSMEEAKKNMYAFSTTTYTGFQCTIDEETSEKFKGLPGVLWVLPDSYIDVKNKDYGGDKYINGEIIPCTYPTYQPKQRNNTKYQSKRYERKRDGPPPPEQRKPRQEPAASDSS

[4] = target: T4, ORRM1-cYFP (Arabidopsis thaliana) (UniProt Q8L440); assay: as above
T4 sequence: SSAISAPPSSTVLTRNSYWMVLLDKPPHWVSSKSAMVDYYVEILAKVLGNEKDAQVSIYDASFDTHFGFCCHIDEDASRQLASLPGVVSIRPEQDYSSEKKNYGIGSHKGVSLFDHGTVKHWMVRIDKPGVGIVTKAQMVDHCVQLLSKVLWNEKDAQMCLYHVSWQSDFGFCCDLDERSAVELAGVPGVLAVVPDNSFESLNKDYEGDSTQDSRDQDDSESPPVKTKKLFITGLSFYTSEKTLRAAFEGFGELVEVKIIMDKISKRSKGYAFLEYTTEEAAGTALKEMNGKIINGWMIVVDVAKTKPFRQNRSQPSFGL

[5] = target: T5, MORF2-NLuc (MORF2, N-terminal luciferase fragment fusion) (Arabidopsis thaliana) (UniProt O22793); assay: split reporter; firefly luciferase complementation imaging (LCI): NLuc and CLuc fusions co-expressed in tobacco leaves by Agrobacterium infiltration with P19, 60 h, 1 mM D-luciferin
T5 sequence: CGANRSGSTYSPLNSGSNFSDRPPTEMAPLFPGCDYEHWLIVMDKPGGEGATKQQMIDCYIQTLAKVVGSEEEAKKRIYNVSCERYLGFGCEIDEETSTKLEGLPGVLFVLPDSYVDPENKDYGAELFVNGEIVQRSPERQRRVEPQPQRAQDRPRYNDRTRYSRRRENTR

[6] = target: T6, MORF8-NLuc (Arabidopsis thaliana) (UniProt Q9LKA5); assay: as above
T6 sequence: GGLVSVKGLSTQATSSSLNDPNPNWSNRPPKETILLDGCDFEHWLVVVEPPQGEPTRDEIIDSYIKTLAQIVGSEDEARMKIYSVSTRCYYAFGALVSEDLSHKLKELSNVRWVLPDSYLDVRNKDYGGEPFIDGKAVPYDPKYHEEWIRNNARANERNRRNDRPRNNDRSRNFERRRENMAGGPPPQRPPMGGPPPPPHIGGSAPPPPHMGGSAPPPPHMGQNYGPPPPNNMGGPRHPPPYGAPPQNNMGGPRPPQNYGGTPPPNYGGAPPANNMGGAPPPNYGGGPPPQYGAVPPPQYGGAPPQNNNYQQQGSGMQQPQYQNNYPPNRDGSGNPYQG

[7] = target: T7, MORF9-NLuc (Arabidopsis thaliana) (UniProt Q9LPZ1); assay: as above
T7 sequence: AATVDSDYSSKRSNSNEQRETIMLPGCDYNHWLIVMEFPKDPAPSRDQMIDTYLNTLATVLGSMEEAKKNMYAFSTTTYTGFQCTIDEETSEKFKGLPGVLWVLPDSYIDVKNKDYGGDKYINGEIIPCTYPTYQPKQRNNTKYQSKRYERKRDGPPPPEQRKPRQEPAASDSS

[8] = target: T8, ORRM1-NLuc (Arabidopsis thaliana) (UniProt Q8L440); assay: as above
T8 sequence: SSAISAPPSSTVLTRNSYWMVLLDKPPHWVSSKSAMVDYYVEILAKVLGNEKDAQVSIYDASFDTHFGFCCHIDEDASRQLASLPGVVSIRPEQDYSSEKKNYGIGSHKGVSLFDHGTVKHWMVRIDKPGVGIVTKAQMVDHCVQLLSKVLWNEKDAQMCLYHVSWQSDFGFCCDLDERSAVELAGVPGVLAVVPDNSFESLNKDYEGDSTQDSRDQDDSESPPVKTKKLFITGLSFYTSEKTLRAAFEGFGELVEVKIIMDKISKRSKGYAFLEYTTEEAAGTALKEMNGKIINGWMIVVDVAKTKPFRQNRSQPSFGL

[9] = target: T9, MORF2 (GAL4 fusion for yeast two-hybrid) (Arabidopsis thaliana) (UniProt O22793); assay: two-hybrid; Matchmaker Gold system, GAL4 BD (pGBKT7) and AD (pGADT7) fusions co-transformed into Y2HGold; growth and blue colour on SD/-Ade/-His/-Leu/-Trp/X-α-Gal, 30 °C, 5 days
T9 sequence: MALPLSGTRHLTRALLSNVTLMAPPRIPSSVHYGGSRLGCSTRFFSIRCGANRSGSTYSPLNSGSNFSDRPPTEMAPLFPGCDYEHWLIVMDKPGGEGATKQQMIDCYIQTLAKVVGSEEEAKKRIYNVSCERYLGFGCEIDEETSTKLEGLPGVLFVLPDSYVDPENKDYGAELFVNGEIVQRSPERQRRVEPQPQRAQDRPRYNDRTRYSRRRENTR

[10] = target: T10, MORF8 (GAL4 fusion for yeast two-hybrid) (Arabidopsis thaliana) (UniProt Q9LKA5); assay: as above
T10 sequence: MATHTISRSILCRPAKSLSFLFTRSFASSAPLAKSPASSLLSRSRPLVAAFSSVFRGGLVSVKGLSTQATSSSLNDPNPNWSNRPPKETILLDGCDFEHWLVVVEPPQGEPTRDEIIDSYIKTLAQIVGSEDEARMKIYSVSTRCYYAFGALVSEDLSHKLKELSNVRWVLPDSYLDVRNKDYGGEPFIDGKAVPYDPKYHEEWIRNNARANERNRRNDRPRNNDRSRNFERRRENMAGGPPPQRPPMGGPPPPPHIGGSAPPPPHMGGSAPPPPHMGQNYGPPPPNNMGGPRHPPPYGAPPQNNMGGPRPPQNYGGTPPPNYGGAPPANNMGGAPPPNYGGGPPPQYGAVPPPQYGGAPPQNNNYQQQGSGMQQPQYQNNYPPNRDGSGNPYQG

[11] = target: T11, MORF9 (GAL4 fusion for yeast two-hybrid) (Arabidopsis thaliana) (UniProt Q9LPZ1); assay: as above
T11 sequence: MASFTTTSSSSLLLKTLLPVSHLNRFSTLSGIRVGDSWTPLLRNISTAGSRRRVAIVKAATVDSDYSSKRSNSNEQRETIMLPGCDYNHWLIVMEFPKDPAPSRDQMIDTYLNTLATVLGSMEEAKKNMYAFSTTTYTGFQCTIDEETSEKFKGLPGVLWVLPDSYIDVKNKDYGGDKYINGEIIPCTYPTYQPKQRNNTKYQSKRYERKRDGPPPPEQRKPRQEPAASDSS

[12] = target: T12, ORRM1 (GAL4 fusion for yeast two-hybrid) (Arabidopsis thaliana) (UniProt Q8L440); assay: as above
T12 sequence: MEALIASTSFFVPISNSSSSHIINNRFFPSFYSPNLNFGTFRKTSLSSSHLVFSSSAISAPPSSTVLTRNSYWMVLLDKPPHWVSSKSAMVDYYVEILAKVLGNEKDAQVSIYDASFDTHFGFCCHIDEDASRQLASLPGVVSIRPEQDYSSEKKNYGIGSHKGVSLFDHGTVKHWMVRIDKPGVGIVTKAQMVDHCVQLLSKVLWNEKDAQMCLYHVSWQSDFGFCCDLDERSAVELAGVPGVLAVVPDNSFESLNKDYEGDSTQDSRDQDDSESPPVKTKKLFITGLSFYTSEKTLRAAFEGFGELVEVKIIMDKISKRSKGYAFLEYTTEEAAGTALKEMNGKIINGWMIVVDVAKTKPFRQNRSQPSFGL

[13] = target: T13, OZ1, organelle zinc-finger 1 protein (GAL4 fusion for yeast two-hybrid) (Arabidopsis thaliana) (UniProt Q8S9K3); assay: as above
T13 sequence: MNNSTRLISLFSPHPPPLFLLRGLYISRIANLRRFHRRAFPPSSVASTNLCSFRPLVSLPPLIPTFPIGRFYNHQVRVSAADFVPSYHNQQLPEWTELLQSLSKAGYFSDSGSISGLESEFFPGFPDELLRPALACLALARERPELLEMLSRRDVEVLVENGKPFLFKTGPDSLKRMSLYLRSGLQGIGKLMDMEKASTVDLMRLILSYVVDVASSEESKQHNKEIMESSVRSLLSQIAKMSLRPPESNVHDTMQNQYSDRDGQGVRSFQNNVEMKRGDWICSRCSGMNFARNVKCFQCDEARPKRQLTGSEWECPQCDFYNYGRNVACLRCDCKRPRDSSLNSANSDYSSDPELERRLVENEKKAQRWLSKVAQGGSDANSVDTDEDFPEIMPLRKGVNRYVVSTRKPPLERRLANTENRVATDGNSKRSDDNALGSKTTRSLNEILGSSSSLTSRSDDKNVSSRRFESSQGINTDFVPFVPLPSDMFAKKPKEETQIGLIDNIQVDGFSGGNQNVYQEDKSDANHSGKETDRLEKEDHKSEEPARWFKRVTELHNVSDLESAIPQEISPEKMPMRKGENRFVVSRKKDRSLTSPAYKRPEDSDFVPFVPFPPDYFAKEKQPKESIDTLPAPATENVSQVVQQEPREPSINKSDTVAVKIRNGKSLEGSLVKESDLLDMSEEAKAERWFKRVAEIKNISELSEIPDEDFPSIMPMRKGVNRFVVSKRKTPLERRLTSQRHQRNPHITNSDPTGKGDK

binding [1]: binds | binding [2]: binds | binding [3]: binds | binding [4]: binds
B1: ATPC1-nYFP (ATPC1 fused to the N-terminal fragment of YFP) (protein, UniProt Q01908 51-373)
chain: ASLRELRDRIDSVKNTQKITEAMKLVAAAKVRRAQEAVVNGRPFSETLVEVLYNINEQLQTDDVDVPLTKVRPVKKVALVVVTGDRGLCGGFNNFIIKKAEARIKELKGLGLEYTVISVGKKGNSYFLRRPYIPVDKYLEAGTLPTAKEAQAVADDVFSLFISEEVDKVELLYTKFVSLVKSEPVIHTLLPLSPKGEICDINGTCVDAAEDEFFRLTTKEGKLTVERETFRTPTADFSPILQFEQDPVQILDALLPLYLNSQILRALQESLASELAARMSAMSSASDNASDLKKSLSMVYNRKRQAKITGEILEIVAGANAQV

binding [5]: binds | binding [6]: binds | binding [7]: binds | binding [8]: binds
B2: ATPC1-CLuc (ATPC1, C-terminal luciferase fragment fusion) (protein, UniProt Q01908 51-373)
chain: ASLRELRDRIDSVKNTQKITEAMKLVAAAKVRRAQEAVVNGRPFSETLVEVLYNINEQLQTDDVDVPLTKVRPVKKVALVVVTGDRGLCGGFNNFIIKKAEARIKELKGLGLEYTVISVGKKGNSYFLRRPYIPVDKYLEAGTLPTAKEAQAVADDVFSLFISEEVDKVELLYTKFVSLVKSEPVIHTLLPLSPKGEICDINGTCVDAAEDEFFRLTTKEGKLTVERETFRTPTADFSPILQFEQDPVQILDALLPLYLNSQILRALQESLASELAARMSAMSSASDNASDLKKSLSMVYNRKRQAKITGEILEIVAGANAQV

binding [9]: binds | binding [10]: binds | binding [11]: binds | binding [12]: binds | binding [13]: binds
B3: ATPC1, the gamma subunit of ATP synthase in Arabidopsis chloroplasts (GAL4 fusion for yeast two-hybrid) (protein, UniProt Q01908 1-373)
chain: MACSNLTTMWVSSKPSLSADSSSLSFRSVLKCPTNTSSPPSRASSVSPLQASLRELRDRIDSVKNTQKITEAMKLVAAAKVRRAQEAVVNGRPFSETLVEVLYNINEQLQTDDVDVPLTKVRPVKKVALVVVTGDRGLCGGFNNFIIKKAEARIKELKGLGLEYTVISVGKKGNSYFLRRPYIPVDKYLEAGTLPTAKEAQAVADDVFSLFISEEVDKVELLYTKFVSLVKSEPVIHTLLPLSPKGEICDINGTCVDAAEDEFFRLTTKEGKLTVERETFRTPTADFSPILQFEQDPVQILDALLPLYLNSQILRALQESLASELAARMSAMSSASDNASDLKKSLSMVYNRKRQAKITGEILEIVAGANAQV
